Laboratory results from US20140066439A1, “OSTEOCLAST ACTIVITY” (Katholieke Universiteit Leuen, K.U.Leuven R&D, priority 2010, published 2014).
At least one compound was matched to its structure with a doubt left.

Test system: PBMCs from critically ill patients
Assay: Osteoclast formation (TRAP staining, day 14) in PBMCs from critically ill patients cultured in critically ill patient serum
Type: cell-based, human
Conditions: low doses, compounds added d1-d14, TRAP staining at day 14
From the text: We have determined that the treatment of patient's peripheral blood mononuclear cell (PBMCs), in particular, PBMCs of critically ill patients with autophagy inducers can be used to suppress enhanced osteoclastogenesis. It turned out that a particular advantage is that such autophagy inducers can be targeted to particularly treat the PBMCs.

Compound: CO[C@H]1C[C@@H]2CC[C@@H](C)[C@@](O)(O2)C(=O)C(=O)N2CCCC[C@H]2C(=O)O[C@H]([C@H](C)C[C@@H]2CC[C@@H](O)[C@H](OC)C2)CC(=O)[C@H](C)/C=C(\C)[C@@H](O)[C@@H](OC)C(=O)[C@H](C)C[C@H](C)/C=C/C=C/C=C/1C [Rapamycin]
- critical illness enhanced osteoclast formation: inhibiting effect
